Results taken from the supplement of paper PMC3334620.
In all, about 33,000 sequences were measured (“E-score (-0.5 to 0.5)”: median about -0.0034, highest 2% from about 0.25 on). This is one part of the list.

Target: T1, Yap3 (UniProt P38749)
T1 sequence: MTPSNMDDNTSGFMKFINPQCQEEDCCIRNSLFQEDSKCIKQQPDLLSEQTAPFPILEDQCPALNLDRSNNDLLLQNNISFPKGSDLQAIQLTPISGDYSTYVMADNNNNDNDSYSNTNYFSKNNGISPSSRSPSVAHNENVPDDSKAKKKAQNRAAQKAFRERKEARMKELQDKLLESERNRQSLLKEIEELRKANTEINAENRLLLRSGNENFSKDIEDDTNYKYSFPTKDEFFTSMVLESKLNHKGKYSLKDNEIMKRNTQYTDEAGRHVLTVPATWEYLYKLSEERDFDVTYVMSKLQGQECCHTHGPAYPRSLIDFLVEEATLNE
Experiment: PBM E-score (8-mer binding enrichment) (E-score (-0.5 to 0.5)); higher = stronger / more preferred TF binding
Settings: protein concentration: 100 nM; construct: GST-full length
Experimental: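 Universal 'all 10-mer' protein binding microarrays (Agilent AMADID 015681) probed with GST-tagged S. cerevisiae TFs (full-length or DBD) made by in vitro transcription/translation (PURExpress), about 100-200 nM. Bound TF was detected with fluorescent anti-GST. Each ungapped 8-mer (which stands for itself and its reverse complement) is scored by the PBM enrichment score (E-score), a modified Wilcoxon-Mann-Whitney statistic from -0.5 to +0.5, computed with the Universal PBM Analysis Suite. Scale: above 0.35 generally sequence-specific binding.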

| Sequence | PBM E-score |
| --- | --- |
| CGGGTAAC | -0.0884 |
| GCAATCGA | -0.0064 |
| GTATCCAA | -0.00123 |
| GAATTCAC | 0.0425 |
| GAAAGTCC | -0.0887 |
| ATTGACAG | 0.0838 |
| CCATGTGA | -0.094 |
| CACCGGAA | 0.125 |
| TCCAATCA | -0.0573 |
| CTCGTTGA | -0.136 |
| AAATTAGA | 0.201 |
| ACGTTAGG | -0.075 |
| ACGAACGC | 0.101 |
| AGCTACGC | -0.254 |
| TAAAGAAA | 0.196 |
| CTTCTCTC | -0.0723 |
| CTTAGCTA | 0.0773 |
| ACGCCTCG | -0.118 |
| CGCGGATA | 0.241 |
| ACTGAAAA | -0.0022 |
| GGTAGTCA | -0.176 |
| ATCACCAG | 0.0332 |
| ACAAGGGT | -0.0448 |
| AAGGATAG | 0.089 |
| CTGACCGC | -0.137 |

| Sequence | PBM E-score |
| --- | --- |
| TCATAGGA | 0.106 |
| ACATGGGT | -0.0457 |
| TCATGGAA | 0.036 |
| AGTAGCAC | -0.0323 |
| GGAACTCA | -0.166 |
| GTATTCGA | -0.147 |
| GTGGGCGA | 0.043 |
| ACGGATCT | -0.0498 |
| CAGAGGAC | -0.0561 |
| ACTAGTAT | 0.197 |
| ATAGAACC | -0.109 |
| ACAGACCA | 0.213 |
| CCGGAGAC | -0.0864 |
| GCGTTGTA | 0.147 |
| CTAGCCAC | -0.21 |
| CCATGAAA | 0.109 |
| CAGGGCGC | -0.0782 |
| GGCGACAA | -0.181 |
| ACAGCCAA | -0.0969 |
| CGCGGAAC | 0.0584 |
| TCAGTCAA | 0.0595 |
| GATTGCGC | 0.0225 |
| AGCGGAGA | 0.226 |
| ACAAGGGC | -0.214 |
| AGTGTAAG | 0.102 |

| Sequence | PBM E-score |
| --- | --- |
| CCCTAAGG | -0.281 |
| CATAGCTA | -0.119 |
| CGAGGCCA | -0.102 |
| ATGGAGAG | -0.0561 |
| GTCGGATA | 0.0653 |
| ACTATATC | 0.227 |
| CCCGTGAC | -0.198 |
| AGGCGACG | -0.00164 |
| GGGGACCC | -0.395 |
| AATCTCCT | -0.0372 |
| ATTTCACC | 0.0904 |
| CAACGTTC | -0.0508 |
| ACTCAAGG | -0.168 |
| TACCCCGA | -0.019 |
| GTACAAAA | 0.233 |
| CTGTTGAA | -0.0364 |
| ATCGTGTG | 0.132 |
| CTTTCCTA | 0.0167 |
| AGGTTGGA | 0.0606 |
| ACTTTAAC | 0.0581 |
| ACTGGTTA | 0.00084 |
| ACAGGCCA | -0.083 |
| ATTTTGGC | 0.238 |
| AGAAGTAG | 0.00557 |
| ATATCCCA | 0.0917 |

| Sequence | PBM E-score |
| --- | --- |
| CGTCAATC | 0.0678 |
| CAGTTGTA | 0.0508 |
| AGCGGTTA | -0.0396 |
| AGGGAGCG | -0.212 |
| ATGCCTTC | -0.171 |
| ACGATTGG | 0.0545 |
| CCATCTCG | 0.0193 |
| CTGGTGTA | -0.0509 |
| CATACCGG | -0.0569 |
| ATATTCAT | 0.172 |
| ACCGTCTC | 0.0687 |
| CCGTTGAC | -0.172 |
| CCTTTCCC | -0.0663 |
| ATGTAAAA | 0.173 |
| ACCGACCA | 0.0683 |
| ATCAAGGA | 0.0728 |
| AAAGATCA | 0.0103 |
| ACACCTAC | 0.0957 |
| ATTCATAC | 0.189 |
| AACCATCA | 0.112 |
| ACAACAGG | -0.0616 |
| GATTTTAA | 0.2 |
| ATGAGTGC | 0.122 |
| ATGCAAAT | 0.0519 |
| CTAAAAAA | 0.183 |

4 consecutive entries from above, for reference:

| Sequence | PBM E-score |
| --- | --- |
| ACTGGTTA | 0.00084 |
| ACAGGCCA | -0.083 |
| ATTTTGGC | 0.238 |
| AGAAGTAG | 0.00557 |

The list goes on:

| Sequence | PBM E-score |
| --- | --- |
| CAAGGTAA | 0.0895 |
| CTCTTATC | 0.131 |
| CTTATCAA | 0.204 |
| ATGGATTG | 0.188 |
| AAAATCAG | 0.107 |
| AGAGAAGC | -0.0978 |
| GGCTGGCA | -0.378 |
| GCTCTACA | 0.0617 |
| AGTACTAC | 0.134 |
| ATAGGCAC | -0.0964 |
| ACTATACG | 0.108 |
| AGTTAGCA | 0.119 |
| AGCGGTAA | 0.0618 |
| AATAAAGA | 0.156 |
| AATGCATA | 0.0923 |
| ACCAGAGG | -0.119 |
| ACAATAGG | 0.088 |
| CCGGGATC | -0.105 |
| TCGTCTAA | -0.0806 |
| AGAGGCCA | -0.185 |
| GACTCCTC | -0.036 |
| AGTGCGAG | -0.0671 |
| CGTATCTC | -0.0678 |
| ATAGTCTG | 0.0847 |
| AGCCCGAT | -0.11 |

Pulled one by one from above (six):

| Sequence | PBM E-score |
| --- | --- |
| AGTTAGCA | 0.119 |
| ACAATAGG | 0.088 |
| ACCAGAGG | -0.119 |
| AGAGGCCA | -0.185 |
| CAAGGTAA | 0.0895 |
| ATAGGCAC | -0.0964 |

(further entries)

| Sequence | PBM E-score |
| --- | --- |
| TGTCCCAA | -0.166 |
| ATCGTGGG | 0.11 |
| GAGCGAGC | 0.00163 |
| AACAGGGG | -0.00938 |
| GCTTCGCA | -0.166 |
| AGGGCAAG | 0.0117 |
| ATACGATG | 0.066 |
| ACTGTCTA | -0.0396 |
| ACTTCAAG | -0.0429 |
| ACGTATGG | 0.0905 |
| GTGAAGGA | 0.0852 |
| CAAACCGA | -0.00591 |
| CACAGCCC | -0.221 |
| GCAAAGAA | 0.0916 |
| AAAAATTT | 0.145 |
| ACGAAAAT | 0.257 |
| ATGAACAC | 0.0717 |
| AGGCTTGG | -0.166 |
| AACCCGCA | -0.0181 |
| ACATAGTC | 0.0935 |
| GAGTCGAC | 0.0559 |
| AGAAAGTC | 0.0514 |
| ATAAATCG | 0.109 |
| ACCCTGCT | -0.174 |
| CGTCGACA | 0.00884 |

Single values from the list.
ATATTCAT – PBM E-score: 0.172
ACTAGTAT – PBM E-score: 0.197

The listing continues:

| Sequence | PBM E-score |
| --- | --- |
| GACAAGCC | -0.0729 |
| ACTCTCAG | 0.0548 |
| CTCCGAAC | -0.0453 |
| ATGTGTTG | 0.198 |
| CCATGAGC | -0.194 |
| CCGGAAAC | -0.0123 |
| GGTCAGAA | -0.119 |
| GGAATTAA | 0.233 |
| CATACAAG | 0.00251 |
| CTCCCAAC | -0.195 |
| CTCGTCGC | 0.00055 |
| AGGTCAAA | -0.0362 |
| ACTCAGCA | 0.0153 |
| GACTGGGA | 0.0479 |
| GACAGGGC | -0.167 |
| ATAGCGAG | 0.0819 |
| GTCTTCGA | -0.122 |
| CGAGTGAG | -0.0523 |
| GGTTGCTA | -0.0649 |
| ACCTGTGC | -0.0524 |
| AGAACACT | 0.0137 |
| GCGTCATA | 0.209 |
